Assay: general procedure: solution-phase peptide synthesis; N-hydroxysuccinimide/dicyclohexylcarbodiimide; isobutyl chloroformate/N-methylmo

Substance	step yield (late stage modification step)	step yield (coupling step)
N-(Z-Asp-Glu-Val-Asp)-aminoluciferin	62%	–
Z-Asp(OtBu)-Glu(OtBu)-Val-Asp(OtBu)-OH	–	56%
N-[Z-Asp(OtBu)-Glu(OtBu)-Val-Asp(OtBu)]-aminoluciferin	41%	–
